Reference: PMC4755757
Results are given in words; binding and its absence hold for the method and conditions named. For some assays here: A result given as binding can be weak or reduced; the word gives no strength. For some assays here: Where a sequence is shown, tags or fusion partners need not be part of it. For some assays here: Binding seen in cells or lysates may run through a third protein.

Chains of the proteins cited; added tags and fusions are not shown. Lines headed by an entry give the natural chain unless they say otherwise; changes in a name come on top.
UniProt Q84V03: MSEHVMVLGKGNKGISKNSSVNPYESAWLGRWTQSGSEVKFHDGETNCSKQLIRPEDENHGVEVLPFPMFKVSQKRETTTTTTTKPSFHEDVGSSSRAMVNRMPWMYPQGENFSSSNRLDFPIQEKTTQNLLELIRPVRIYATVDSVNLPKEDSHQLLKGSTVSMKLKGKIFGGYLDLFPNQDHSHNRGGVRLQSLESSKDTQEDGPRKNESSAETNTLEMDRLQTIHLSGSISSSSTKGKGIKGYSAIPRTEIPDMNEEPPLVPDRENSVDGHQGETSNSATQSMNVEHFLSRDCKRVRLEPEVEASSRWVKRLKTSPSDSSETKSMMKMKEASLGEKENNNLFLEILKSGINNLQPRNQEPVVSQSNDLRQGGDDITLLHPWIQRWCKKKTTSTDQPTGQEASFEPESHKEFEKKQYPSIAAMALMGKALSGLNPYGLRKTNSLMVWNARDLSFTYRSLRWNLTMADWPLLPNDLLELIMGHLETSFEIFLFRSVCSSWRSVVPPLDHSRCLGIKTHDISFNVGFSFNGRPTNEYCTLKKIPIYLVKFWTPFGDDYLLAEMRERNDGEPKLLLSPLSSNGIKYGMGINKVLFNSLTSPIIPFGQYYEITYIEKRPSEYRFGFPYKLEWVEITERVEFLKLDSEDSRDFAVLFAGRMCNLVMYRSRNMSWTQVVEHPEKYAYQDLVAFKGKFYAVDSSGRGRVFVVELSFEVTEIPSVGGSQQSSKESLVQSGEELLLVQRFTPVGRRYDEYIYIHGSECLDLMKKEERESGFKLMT
UniProt P14713: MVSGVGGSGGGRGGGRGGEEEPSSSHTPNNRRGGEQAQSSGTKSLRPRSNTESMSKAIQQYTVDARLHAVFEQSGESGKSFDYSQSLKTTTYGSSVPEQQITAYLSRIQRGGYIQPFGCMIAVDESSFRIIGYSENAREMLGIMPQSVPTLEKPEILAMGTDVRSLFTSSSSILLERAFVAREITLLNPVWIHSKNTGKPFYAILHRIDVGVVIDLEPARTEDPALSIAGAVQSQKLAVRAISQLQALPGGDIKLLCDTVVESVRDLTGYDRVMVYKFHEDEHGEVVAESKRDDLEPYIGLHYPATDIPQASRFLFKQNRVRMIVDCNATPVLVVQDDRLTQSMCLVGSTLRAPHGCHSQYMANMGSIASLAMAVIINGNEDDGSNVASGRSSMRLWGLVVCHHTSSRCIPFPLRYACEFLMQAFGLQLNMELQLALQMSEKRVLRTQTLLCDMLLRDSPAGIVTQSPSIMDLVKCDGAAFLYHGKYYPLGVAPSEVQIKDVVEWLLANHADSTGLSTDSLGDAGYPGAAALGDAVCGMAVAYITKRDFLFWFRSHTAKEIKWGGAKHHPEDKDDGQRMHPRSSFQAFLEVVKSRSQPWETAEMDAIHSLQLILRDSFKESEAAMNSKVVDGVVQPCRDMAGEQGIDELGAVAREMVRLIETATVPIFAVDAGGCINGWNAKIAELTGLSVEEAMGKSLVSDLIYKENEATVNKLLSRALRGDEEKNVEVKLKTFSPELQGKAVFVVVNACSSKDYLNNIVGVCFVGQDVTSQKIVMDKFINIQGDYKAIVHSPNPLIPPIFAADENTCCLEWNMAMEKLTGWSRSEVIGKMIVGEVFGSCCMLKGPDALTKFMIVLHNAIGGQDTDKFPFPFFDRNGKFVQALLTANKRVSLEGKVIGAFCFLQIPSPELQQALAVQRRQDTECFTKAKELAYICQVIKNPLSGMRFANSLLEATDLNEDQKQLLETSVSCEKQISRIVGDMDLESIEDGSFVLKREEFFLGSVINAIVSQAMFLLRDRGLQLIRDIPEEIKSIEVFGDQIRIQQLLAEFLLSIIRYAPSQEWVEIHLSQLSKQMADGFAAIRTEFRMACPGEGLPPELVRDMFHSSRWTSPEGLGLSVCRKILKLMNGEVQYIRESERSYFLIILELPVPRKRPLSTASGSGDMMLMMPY

Columns and labels:
[1] = target: PCH1 fused to GAL4 DNA binding domain (A. thaliana) (UniProt Q84V03); test: two-hybrid; Matchmaker GAL4 system; PCH1 fused to DBD, preys fused to AD; growth on -Leu -Trp -His with 2 mM 3AT, 4 days at 30°C
[2] = target: PCH1-His6-FLAG3, transiently expressed in tobacco (Nicotiana benthamiana) leaves (A. thaliana) (UniProt Q84V03); test: co-IP; transient co-expression in N. benthamiana leaves; anti-FLAG IP, westerns with anti-FLAG, phyB or GFP antibodies
[3] = target: Recombinant His6-PCH1-His6-FLAG3 (A. thaliana) (UniProt Q84V03); test: pull-down; purified His6-PCH1-His6-FLAG3 bait with in vitro translated phyB-HA apoprotein (no PΦB), dark, 12°C; TALON beads, anti-HA blot; only the target purified
[4] = target: Recombinant His6-PCH1-His6-FLAG3 (A. thaliana) (UniProt Q84V03); test: pull-down; purified His6-PCH1-His6-FLAG3 bait with in vitro translated phyB-HA plus 20 µM PΦB under red light (Pfr, 50 µmol m^-2 s^-1), 12°C; TALON beads, anti-HA blot; only the target purified
[5] = target: Recombinant His6-PCH1-His6-FLAG3 (A. thaliana) (UniProt Q84V03); test: pull-down; purified His6-PCH1-His6-FLAG3 bait with in vitro translated phyB-HA plus 20 µM PΦB under far red light (Pr, 25 µmol m^-2 s^-1), 12°C; TALON beads, anti-HA blot; only the target purified
[6] = target: PCH1 fused to GAL4 DNA binding domain (A. thaliana), Q84V03; test: two-hybrid; Matchmaker GAL4 system; PCH1 fused to DBD, preys fused to AD; growth on -Leu -Trp -His with 2 mM 3AT, 4 days at 30°C; settings: remark: other sources report otherwise

Row | Molecule | binding [1] | further results
1 | phyB-Ct (amino acids 640-1173) fused to GAL4 activating domain (from UniProt P14713 640-1172) (domain or fragment) | binds | 
2 | phyB-GFP fusion protein, transiently expressed in tobacco (from UniProt P14713 1-1172) |  | binding [2]: binds
3 | phyB-HA apoprotein (no PΦB) (from UniProt P14713 1-1172) |  | binding [3]: binds weakly
4 | phyB-HA holoprotein (mixed with the chromophore phytochromobilin, PΦB) (from UniProt P14713 1-1172) |  | binding [4]: binds; binding [5]: binds weakly
5 | phyD-Ct (amino acids 645-1165) fused to GAL4 activating domain (domain or fragment, UniProt P42497 645-1164) MVQQGMQEIGAVAREMVRLIETATVPIFAVDIDGCINGWNAKIAELTGLSVEDAMGKSLVRELIYKEYKETVDRLLSCALKGDEGKNVEVKLKTFGSELQGKAMFVVVNACSSKDYLNNIVGVCFVGQDVTGHKIVMDKFINIQGDYKAIIHSPNPLIPPIFAADENTCCLEWNTAMEKLTGWPRSEVIGKLLVREVFGSYCRLKGPDALTKFMIVLHNAIGGQDTDKFPFPFFDRKGEFIQALLTLNKRVSIDGKIIGAFCFLQIPSPELQQALEVQRRQESEYFSRRKELAYIFQVIKNPLSGLRFTNSLLEDMDLNEDQKQLLETSVSCEKQISKIVGDMDVKSIDDGSFLLERTEFFIGNVTNAVVSQVMLVVRERNLQLIRNIPTEVKSMAVYGDQIRLQQVLAEFLLSIVRYAPMEGSVELHLCPTLNQMADGFSAVRLEFRMACAGEGVPPEKVQDMFHSSRWTSPEGLGLSVCRKILKLMNGGVQYIREFERSYFLIVIELPVPLMMMMPSS | binds | 
6 | phyE-Ct (amino acids 583-1113) fused to GAL4 activating domain (domain or fragment, UniProt P42498 583-1112) NGVARDANELTSFVCEMVRVIETATAPIFGVDSSGCINGWNKKTAEMTGLLASEAMGKSLADEIVQEESRAALESLLCKALQGEEEKSVMLKLRKFGQNNHPDYSSDVCVLVNSCTSRDYTENIIGVCFVGQDITSEKAITDRFIRLQGDYKTIVQSLNPLIPPIFASDENACCSEWNAAMEKLTGWSKHEVIGKMLPGEVFGVFCKVKCQDSLTKFLISLYQGIAGDNVPESSLVEFFNKEGKYIEASLTANKSTNIEGKVIRCFFFLQIINKESGLSCPELKESAQSLNELTYVRQEIKNPLNGIRFAHKLLESSEISASQRQFLETSDACEKQITTIIESTDLKSIEEGKLQLETEEFRLENILDTIISQVMIILRERNSQLRVEVAEEIKTLPLNGDRVKLQLILADLLRNIVNHAPFPNSWVGISISPGQELSRDNGRYIHLQFRMIHPGKGLPSEMLSDMFETRDGWVTPDGLGLKLSRKLLEQMNGRVSYVREDERCFFQVDLQVKTMLGVESRGTEGSSSIK | binds | 
7 | ELF3 fused to GAL4 activating domain, O82804 1-695 (protein) MKRGKDEEKILEPMFPRLHVNDADKGGPRAPPRNKMALYEQLSIPSQRFGDHGTMNSRSNNTSTLVHPGPSSQPCGVERNLSVQHLDSSAANQATEKFVSQMSFMENVRSSAQHDQRKMVREEEDFAVPVYINSRRSQSHGRTKSGIEKEKHTPMVAPSSHHSIRFQEVNQTGSKQNVCLATCSKPEVRDQVKANARSGGFVISLDVSVTEEIDLEKSASSHDRVNDYNASLRQESRNRLYRDGGKTRLKDTDNGAESHLATENHSQEGHGSPEDIDNDREYSKSRACASLQQINEEASDDVSDDSMVDSISSIDVSPDDVVGILGQKRFWRARKAIANQQRVFAVQLFELHRLIKVQKLIAASPDLLLDEISFLGKVSAKSYPVKKLLPSEFLVKPPLPHVVVKQRGDSEKTDQHKMESSAENVVGRLSNQGHHQQSNYMPFANNPPASPAPNGYCFPPQPPPSGNHQQWLIPVMSPSEGLIYKPHPGMAHTGHYGGYYGHYMPTPMVMPQYHPGMGFPPPGNGYFPPYGMMPTIMNPYCSSQQQQQQQPNEQMNQFGHPGNLQNTQQQQQRSDNEPAPQQQQQPTKSYPRARKSRQGSTGSSPSGPQGISGSKSFRPFAAVDEDSNINNAPEQTMTTTTTTTRTTVTQTTRDGGGVTRVIKVVPHNAKLASENAARIFQSIQEERKRYDSSKP |  | binding [6]: no binding
8 | LUX (full length) fused to GAL4 activating domain (protein, UniProt Q9SNB4 1-323) MGEEVQMSDYDVSGDGDRVSEWEMGLPSDEDLASLSYSLIPPNLAMAFSITPERSRTIQDVNRASETTLSSLRGGSSGPNTSSSNNNVEEEDRVGSSSPGSDSKKQKTSNGDGDDGGGVDPDSAMAAEEGDSGTEDLSGKTLKRPRLVWTPQLHKRFVDVVAHLGIKNAVPKTIMQLMNVEGLTRENVASHLQKYRLYLKRMQGLTNEGPSASDKLFSSTPVPPQSFQDIGGGGGSSGNVGVPIPGAYGTQQMMQMPVYAHHMGMQGYHHQNHNHDPYHQNHRHHHGAGGNGAFESNPYMMQQNKFGSMASYPSVGGGSANEN | no binding | 
9 | LUX-Nt (amino acids 1-143) fused to GAL4 activating domain (domain or fragment, UniProt Q9SNB4 1-143) MGEEVQMSDYDVSGDGDRVSEWEMGLPSDEDLASLSYSLIPPNLAMAFSITPERSRTIQDVNRASETTLSSLRGGSSGPNTSSSNNNVEEEDRVGSSSPGSDSKKQKTSNGDGDDGGGVDPDSAMAAEEGDSGTEDLSGKTLK | no binding | 
10 | LUX-Ct (amino acids 144-324) fused to GAL4 activating domain (domain or fragment, UniProt Q9SNB4 144-323) RPRLVWTPQLHKRFVDVVAHLGIKNAVPKTIMQLMNVEGLTRENVASHLQKYRLYLKRMQGLTNEGPSASDKLFSSTPVPPQSFQDIGGGGGSSGNVGVPIPGAYGTQQMMQMPVYAHHMGMQGYHHQNHNHDPYHQNHRHHHGAGGNGAFESNPYMMQQNKFGSMASYPSVGGGSANEN | no binding | 
11 | COP1 fused to GAL4 activating domain, P43254 1-675 (protein) MEEISTDPVVPAVKPDPRTSSVGEGANRHENDDGGSGGSEIGAPDLDKDLLCPICMQIIKDAFLTACGHSFCYMCIITHLRNKSDCPCCSQHLTNNQLYPNFLLDKLLKKTSARHVSKTASPLDQFREALQRGCDVSIKEVDNLLTLLAERKRKMEQEEAERNMQILLDFLHCLRKQKVDELNEVQTDLQYIKEDINAVERHRIDLYRARDRYSVKLRMLGDDPSTRNAWPHEKNQIGFNSNSLSIRGGNFVGNYQNKKVEGKAQGSSHGLPKKDALSGSDSQSLNQSTVSMARKKRIHAQFNDLQECYLQKRRQLADQPNSKQENDKSVVRREGYSNGLADFQSVLTTFTRYSRLRVIAEIRHGDIFHSANIVSSIEFDRDDELFATAGVSRCIKVFDFSSVVNEPADMQCPIVEMSTRSKLSCLSWNKHEKNHIASSDYEGIVTVWDVTTRQSLMEYEEHEKRAWSVDFSRTEPSMLVSGSDDCKVKVWCTRQEASVINIDMKANICCVKYNPGSSNYIAVGSADHHIHYYDLRNISQPLHVFSGHKKAVSYVKFLSNNELASASTDSTLRLWDVKDNLPVRTFRGHTNEKNFVGLTVNSEYLACGSETNEVYVYHKEITRPVTSHRFGSPDMDDAEEEAGSYFISAVCWKSDSPTMLTANSQGTIKVLVLAA |  | binding [6]: no binding
12 | phyA-Ct (amino acids 606-1123) fused to GAL4 activating domain (domain or fragment, UniProt P14712 606-1122) DLKIDGIQELEAVTSEMVRLIETATVPILAVDSDGLVNGWNTKIAELTGLSVDEAIGKHFLTLVEDSSVEIVKRMLENALEGTEEQNVQFEIKTHLSRADAGPISLVVNACASRDLHENVVGVCFVAHDLTGQKTVMDKFTRIEGDYKAIIQNPNPLIPPIFGTDEFGWCTEWNPAMSKLTGLKREEVIDKMLLGEVFGTQKSCCRLKNQEAFVNLGIVLNNAVTSQDPEKVSFAFFTRGGKYVECLLCVSKKLDREGVVTGVFCFLQLASHELQQALHVQRLAERTAVKRLKALAYIKRQIRNPLSGIMFTRKMIEGTELGPEQRRILQTSALCQKQLSKILDDSDLESIIEGCLDLEMKEFTLNEVLTASTSQVMMKSNGKSVRITNETGEEVMSDTLYGDSIRLQQVLADFMLMAVNFTPSGGQLTVSASLRKDQLGRSVHLANLEIRLTHTGAGIPEFLLNQMFGTEEDVSEEGLSLMVSRKLVKLMNGDVQYLRQAGKSSFIITAELAAANK | no binding | 
13 | phyC-Ct (amino acids 592-1112) fused to GAL4 activating domain (domain or fragment, UniProt P14714 592-1111) DNRVQKVDELCVIVNEMVRLIDTAAVPIFAVDASGVINGWNSKAAEVTGLAVEQAIGKPVSDLVEDDSVETVKNMLALALEGSEERGAEIRIRAFGPKRKSSPVELVVNTCCSRDMTNNVLGVCFIGQDVTGQKTLTENYSRVKGDYARIMWSPSTLIPPIFITNENGVCSEWNNAMQKLSGIKREEVVNKILLGEVFTTDDYGCCLKDHDTLTKLRIGFNAVISGQKNIEKLLFGFYHRDGSFIEALLSANKRTDIEGKVTGVLCFLQVPSPELQYALQVQQISEHAIACALNKLAYLRHEVKDPEKAISFLQDLLHSSGLSEDQKRLLRTSVLCREQLAKVISDSDIEGIEEGYVELDCSEFGLQESLEAVVKQVMELSIERKVQISCDYPQEVSSMRLYGDNLRLQQILSETLLSSIRFTPALRGLCVSFKVIARIEAIGKRMKRVELEFRIIHPAPGLPEDLVREMFQPLRKGTSREGLGLHITQKLVKLMERGTLRYLRESEMSAFVILTEFPLI | no binding | 
